## Primary screen of a compound library

Values are the deposited “Percent Effect”, in %. How 0% and 100% were set is not recorded. Most values in the screen are low, and negative values occur. This is an unselected part of the compounds tested. Two or more numbers in one place are separate tests of the same structure; such repeats can differ widely.

Mtb glucose medium: 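Whole-cell growth test on Mycobacterium tuberculosis, read after 3 days in glucose-containing 7H9 medium; the read-out is not stated. Concentration: 50 µM. Higher reads as more growth inhibition (inferred: compounds with an IC50 in retests scored well above the rest). About 69,000 compounds were tested under these conditions; 1.1% (about 760) showed 50% or more at least once.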
Mtb cholesterol medium: 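Growth of Mycobacterium tuberculosis over 4 days (cholesterol / DPPC medium with tyloxapol); the read-out is not stated. Concentration: 50 µM. Higher reads as more growth inhibition (inferred: compounds with an IC50 in retests scored well above the rest). About 69,000 compounds were tested under these conditions; 0.54% (about 370) showed 50% or more at least once.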

| compound | Mtb glucose medium | Mtb cholesterol medium |
|---|---|---|
| `COCCO[C@@H]1CCN(C(=O)c2ccc[nH]2)[C@H]1Cc1cnn(C)c1` | 9.667% | 1.522% & -14.57% |
| `CS(=O)(=O)CCC(=O)Nc1cc(Cl)c(Cl)cn1` | -3.039% | -9.242% |
| `COCC1CN(Cc2cccnc2OC)Cc2cnn(C)c21` (configuration not stated) | -4.877% & 5.349% | -9.626% & -12.77% |
| `Cc1ccc(Oc2ncccc2C(=O)N(C)CC2OCCO2)c(C)c1` | -39.31% | -30.92% |
| `CN(C)c1cnn(CC(=O)N2Cc3ccccc3C2)c(=O)c1` | -16.77% | 1.742% |
| `COCC(=O)N1CC2(CCN(c3ccccc3)C2)C1` | -47.35% & 12.01% | 4.18% |
| `CCn1nnc(NCc2cc(Cl)cc(Cl)c2OC)n1` | 3.859% | 1.963% |
| `NC(=O)C1CCN(C(=O)NCc2csc(Br)c2)CC1` | -4.932% | -12.72% |
| `Cc1ccc(-n2c(SCC(=O)O)nnc2-c2ccccc2)cc1` | 18% | -6.366% |
| `[H][C@@]12COC[C@]1(CNS(C)(=O)=O)CN(C(=O)N1CCCC1)C2` | 19.12% | 0.7718% |
| `CC(CO)(NC(=O)Nc1nnc(C2CC2)s1)C1CCCCC1` (configuration not stated) | -6.147% | -3.539% |
| `c1ccc(CNCC2Cn3nncc3CO2)nc1` (configuration not stated) | 9.691% & -2.074% | -0.1663% |
| `Cc1csc(CN2CCC(C(=O)O)(n3ccc(-c4ccco4)n3)CC2)n1` | -18.58% | 15.96% |
| `O=C(O)C(F)(F)F.O=C(O)C(F)(F)F.O=C(O)C(F)(F)F.[H][C@@]12CN(Cc3ccncc3)C[C@]1([H])[C@H](OC)CCN2Cc1cccs1` | -5.628% | 11.71% |
| `[H][C@@]12CCN(S(=O)(=O)C3CC3)[C@]1([H])CC[C@H](c1nc(C)no1)O2` | -22.2% | -40.54% |
| `Cn1nnc(NCc2ccc(OCc3ccc(Cl)cc3)cc2)n1` | 14.09% | 10.47% |
| `CN1CCC(CNC(=O)NCc2ccc(N(C)C)cc2)CC1` | 17.45% | -2.339% |
| `Cc1nn(-c2ccccc2)c(C)c1-c1ccnc(N2CCCNCC2)n1` | 38.31% | 11.33% |
| `O=C(c1cccnc1N1CCOCC1)N1CCCC(n2cncn2)C1` (configuration not stated) | 1.638% | -16.84% |
| `[H][C@]12CC[C@]([H])(CN(Cc3ccncc3)C1)N(C(=O)CCC1CCCC1)C2` | 12.32% & -10.62% | -17.49% |
| `CN(Cc1ccc(O)cc1)C(=O)NC1CCCN(c2ncccn2)C1` (configuration not stated) | 18.03% | 10.01% |
| `Cc1nc(C)n(CC2CCCN2Cc2cn3ccccc3c2C#N)n1` (configuration not stated) | -0.5887% & 1.405% | -17.37% |
| `CC(CCc1ccccc1F)C(=O)NS(C)(=O)=O` (configuration not stated) | 3.138% & 0.02222% | -8.291% |
| `CCN(CC)Cc1cn2c(n1)CN(C(=O)Cc1ccsc1)CC2.O=C(O)C(F)(F)F` | 3.641% | 1.697% |
| `O=C(O)C(F)(F)F.[H][C@@]12CN(Cc3ccc4c(c3)OCO4)C[C@H](C(=O)NC3CC3)[C@]1([H])CCO2` | 22.27% & -22.04% | 9.763% |
| `CC(C)c1nc2n(n1)CC(NCc1nnc(-c3ccco3)o1)CC2` (configuration not stated) | 12.38% | 2.689% |
| `CS(=O)(=O)N1CCN(Cc2c(O)ccc3oc4c(c23)CCCC4)CC1` | -14.52% | -14.2% |
| `O=C(Nc1ccc(Cl)cn1)C1CCCN(CCc2ccncc2)C1` (configuration not stated) | 17.48% | 14.12% |
| `Cc1nc2ccccc2n1Cc1cc(C(=O)N(C)C2CCOC2)n[nH]1` (configuration not stated) | 12.1% | 5.623% |
| `CCn1nc(C)cc1C(=O)NCc1nc(C)no1` | 27.24% | 8.304% |
| `COCc1ccccc1C(=O)NCC(O)c1ccc(Cl)s1` (configuration not stated) | 15.3% | -2.649% |
| `CCN1CC(=O)NCC12CCN(C(=O)c1ccno1)C2.O=C(O)C(F)(F)F` (configuration not stated) | -10.55% | -13.88% |
| `O=C(Cc1ccc(F)c(F)c1)NC1COc2ccccc2C1=O` (configuration not stated) | 1.441% | -0.7704% |
| `CCc1ccc(S(=O)(=O)Nc2ccc(F)cc2C(=O)O)s1` | -9.607% | -1.032% |
| `CC(O)CN1CCC(CNCc2cccc(Cl)c2)CC1` (configuration not stated) | -3.008% | -7.928% |
| `COCCCNC(=O)CN(C)C(=O)c1cc(C)ccc1O` | -3.195% | -20.22% |
| `N#Cc1cccc(Cl)c1NCCc1n[nH]c(=O)[nH]1` | 12.74% | 1.698% |
| `CC(C)(CNc1cc(F)ccc1F)S(C)(=O)=O` | -19.11% | -8.388% |
| `Cc1csc(N2CCCN(C(=O)c3occc3C)CC2)n1` | -13.61% | 9.999% |
| `CN(C)C(=O)COCc1cncc2c1CCN(Cc1ccccn1)C2.O=C(O)C(F)(F)F.O=C(O)C(F)(F)F` | -46.83% | -3.346% & -7.958% |
| `COCCN(CCN(C)C)C(=O)NC1CCc2ccccc2C1` (configuration not stated) | 17.48% | 0.3858% |
| `Cc1nn(C)c(C)c1-c1nccnc1CC1CCNCC1` | 3.301% | 6.311% & 3.715% |
| `c1ccc(-c2nc(CN3CCn4c(nnc4C4CC4)C3)cs2)cc1` | 10.87% | -5.052% |
| `CSCCC(=O)N1CCC(c2nnc(CN(C)CCO)n2C)CC1` | 5.696% | 6.085% & 0.4558% |
| `CN(CC1(O)CCCN(CCC2CCCCC2)C1=O)C1CCOCC1` (configuration not stated) | 11.02% | 17.05% |
| `C=C(C)CN(CC)Cc1nc(C)no1` | 14.24% & -4.985% | -7.034% & 8.91% |
| `Cc1ccccc1CN1CCCC1c1cccc(Nc2nccs2)n1` (configuration not stated) | 23.52% | 0.7084% & -7.449% |
| `CCC(CC)N1CCC(c2[nH]ncc2S(C)(=O)=O)C1` (configuration not stated) | 14.06% | -2.14% |
| `CC1=C[C@@H](CN2CCC(O)CC2)[C@H](C(C)C)C[C@H]1Cc1nnc(C)o1` | 2.937% & -7.46% | -22.8% |
| `CN1C(=O)CC(c2ccccc2)C12CCN(CC1CC1)CC2.O=C(O)C(F)(F)F` (configuration not stated) | -9.019% | -8.075% |
| `Cc1c(Cl)cccc1NC(=O)c1nc[nH]n1` | -5.589% | 4.162% |
| `Cc1ccc(OCc2nnc(SCC3CCCN(C)C3)o2)cc1` (configuration not stated) | -16.68% | 1.109% |
| `Cn1cccc1C(=O)NCc1cn2c(n1)CN(Cc1ccccn1)CC2.O=C(O)C(F)(F)F.O=C(O)C(F)(F)F` | -8.742% | 2.566% & -7.152% |
| `Cc1nccn1-c1cc(CNC(=O)COCC2CC2)ccn1` | -0.4712% | 1.575% & -3.609% |
| `CC(CN1CCCCCC1)NCc1nncn1C1CCCCC1` (configuration not stated) | 6.169% | -14.45% |
| `[H][C@]12CC[C@]([H])(CN(CC(=O)N(C)C)C1)N(Cc1cccc(Cl)c1Cl)C2` | -10.65% | -21.94% |
| `O=C(N1CCCC1)N1CCN(c2ccc(Cl)nn2)C(=O)C1` | 4.125% | -1.024% |
| `Cc1cc(C(=O)N(C)Cc2nc(-c3ccccn3)no2)c(C)o1` | -5.388% & 7.919% | -8.612% |
| `CC(C)c1cc(C(=O)N2CCN(Cc3ccco3)CC2)n[nH]1` | 14.24% & -62.52% | -12.56% |
| `CCOCc1nc(N2CCOCC2)sc1C(=O)NCCCc1ccco1` | 10.83% | -6.62% |
| `Cc1nc(CSCCC(=O)NCCNC(=O)OC(C)(C)C)cs1` | -2.166% | -14.18% |
| `Cc1cccc(C)c1-n1nnnc1C1(NCc2ccco2)CCCC1` | 3.018% | -6.104% |

For reference, 4 entries once more:

For c1ccc(-c2nc(CN3CCn4c(nnc4C4CC4)C3)cs2)cc1 the result was Mtb glucose medium: 10.87%; Mtb cholesterol medium: -5.052%.
For Cc1csc(N2CCCN(C(=O)c3occc3C)CC2)n1 the result was Mtb glucose medium: -13.61%; Mtb cholesterol medium: 9.999%.
For CC(C)c1cc(C(=O)N2CCN(Cc3ccco3)CC2)n[nH]1 the result was Mtb glucose medium: 14.24% & -62.52%; Mtb cholesterol medium: -12.56%.
For O=C(Nc1ccc(Cl)cn1)C1CCCN(CCc2ccncc2)C1 (configuration not stated) the result was Mtb glucose medium: 17.48%; Mtb cholesterol medium: 14.12%.

From ChEMBL document CHEMBL3988442, “University of Dundee, Small-Polar-MMV Screening Library” (2021).